{"sequences": {"note": "Chains of the proteins cited; added tags and fusions are not shown. Lines headed by an entry give the natural chain unless they say otherwise; changes in a name come on top.", "UniProt P06536": "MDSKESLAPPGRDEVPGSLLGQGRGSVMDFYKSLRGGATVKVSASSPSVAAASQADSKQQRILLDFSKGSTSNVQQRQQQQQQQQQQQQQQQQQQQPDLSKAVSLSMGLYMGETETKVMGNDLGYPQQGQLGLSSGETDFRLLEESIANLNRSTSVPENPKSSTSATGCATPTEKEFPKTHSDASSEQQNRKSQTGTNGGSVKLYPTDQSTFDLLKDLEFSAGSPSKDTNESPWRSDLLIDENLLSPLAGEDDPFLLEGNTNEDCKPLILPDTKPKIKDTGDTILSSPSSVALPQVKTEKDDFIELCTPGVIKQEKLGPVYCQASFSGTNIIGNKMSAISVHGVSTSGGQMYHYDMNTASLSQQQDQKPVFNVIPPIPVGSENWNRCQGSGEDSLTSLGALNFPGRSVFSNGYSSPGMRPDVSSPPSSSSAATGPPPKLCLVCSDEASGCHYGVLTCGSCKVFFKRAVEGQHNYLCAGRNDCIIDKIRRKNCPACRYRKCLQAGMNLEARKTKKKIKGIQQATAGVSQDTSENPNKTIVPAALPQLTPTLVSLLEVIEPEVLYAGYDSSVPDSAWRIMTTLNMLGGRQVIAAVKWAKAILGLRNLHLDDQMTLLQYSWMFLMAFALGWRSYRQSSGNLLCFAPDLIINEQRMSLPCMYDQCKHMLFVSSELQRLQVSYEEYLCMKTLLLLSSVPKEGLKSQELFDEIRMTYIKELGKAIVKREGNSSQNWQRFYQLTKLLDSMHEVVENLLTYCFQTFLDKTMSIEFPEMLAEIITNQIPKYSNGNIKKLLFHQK"}, "source": "patent US6348317B1", "about": "“Fluorescent and DNA cleavage properties of peptide/dye conjugates” (The Arizona Board of Regents, priority 1999, dated 2002)", "key": {"[1]": {"target": "T1, GR N-terminal zinc finger peptide (ZF, GR residues 438-465) (UniProt P06536)", "T1 sequence": "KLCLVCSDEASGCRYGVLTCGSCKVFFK", "assay": "FP", "conditions": "unconjugated ZF, 50 nM labelled DNA; 20 mM Tris pH 7.9, 30 mM NaCl, 20 mM KCl, 1 mM MgCl2, 5% glycerol, ZnCl2; synthetic protein; label: fluorescein; variant of GRE2"}, "[2]": {"target": "T2, TO-ZF (thiazole orange-GR zinc finger conjugate) (UniProt P06536)", "T2 sequence": "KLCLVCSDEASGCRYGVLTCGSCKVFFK", "assay": "binding assay", "conditions": "fluorescein quenching by energy transfer; 20 mM Tris pH 7.9, 30 mM NaCl, 20 mM KCl, 1 mM MgCl2, 5% glycerol, ZnCl2; synthetic protein; label: fluorescein; variant of GRE2"}}, "note": "For at least one entry, the source does not settle the construct or the ends of the probe. Where a protein sequence is shown, tags need not be part of it.", "data": [{"sequence": "TGATACGGCTGACTGTTCTATGA (double strand) [F-GRE2]", "values": [{"measurement": "Kd", "setting": "[1]", "result": 1100, "unit": "nM"}, {"measurement": "Kd", "setting": "[2]", "result": 14, "unit": "nM"}]}]}
